Assay [1] has as its target T1, SLP76 (human (endogenous in primary T cells)) (UniProt Q13094).
T1 sequence: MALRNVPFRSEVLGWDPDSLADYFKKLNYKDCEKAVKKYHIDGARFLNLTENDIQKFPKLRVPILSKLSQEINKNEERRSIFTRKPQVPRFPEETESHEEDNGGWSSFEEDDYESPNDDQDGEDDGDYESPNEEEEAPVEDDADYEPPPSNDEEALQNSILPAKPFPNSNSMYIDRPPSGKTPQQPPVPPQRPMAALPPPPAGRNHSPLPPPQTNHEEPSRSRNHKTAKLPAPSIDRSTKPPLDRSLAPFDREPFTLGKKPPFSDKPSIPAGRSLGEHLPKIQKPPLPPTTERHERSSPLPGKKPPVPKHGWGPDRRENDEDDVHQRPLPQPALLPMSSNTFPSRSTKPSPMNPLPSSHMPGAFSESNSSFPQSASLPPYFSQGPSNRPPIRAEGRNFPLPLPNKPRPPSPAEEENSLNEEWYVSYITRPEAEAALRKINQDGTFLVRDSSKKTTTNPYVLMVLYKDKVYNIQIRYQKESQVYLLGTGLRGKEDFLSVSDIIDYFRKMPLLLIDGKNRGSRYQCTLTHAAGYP
Description: co-IP.

Assay [2] addresses PI3K (human (endogenous in primary T cells)). Description: co-IP.

No constants are given. Whether binding was seen depends on the method and setting. In cells and extracts the contact can be indirect. Binding can be weak; no strength is given.

With “PLCg (human (endogenous in primary T cells))”, the binding entry in assay [1] is on record as “binds”.

B1: LAT (protein, UniProt O43561 1-262)
chain: MEEAILVPCVLGLLLLPILAMLMALCVHCHRLPGSYDSTSSDSLYPRGIQFKRPHTVAPWPPAYPPVTSYPPLSQPDLLPIPRSPQPLGGSHRTPSSRRDSDGANSVASYENEGASGIRGAQAGWGVWGPSWTRLTPVSLPPEPACEDADEDEDDYHNPGYLVVLPDSTPATSTAAPSAPALSTPGIRDSAFSMESIDDYVNVPESGESAEASLDGSREYVNVSQELHPGAAKTEPAALSSQEAEEVEEEGAPDYENLQELN
With B1, the binding entry in assay [2] is given as “binds”.

B2: SLP76 (protein, UniProt Q13094 1-533)
chain: MALRNVPFRSEVLGWDPDSLADYFKKLNYKDCEKAVKKYHIDGARFLNLTENDIQKFPKLRVPILSKLSQEINKNEERRSIFTRKPQVPRFPEETESHEEDNGGWSSFEEDDYESPNDDQDGEDDGDYESPNEEEEAPVEDDADYEPPPSNDEEALQNSILPAKPFPNSNSMYIDRPPSGKTPQQPPVPPQRPMAALPPPPAGRNHSPLPPPQTNHEEPSRSRNHKTAKLPAPSIDRSTKPPLDRSLAPFDREPFTLGKKPPFSDKPSIPAGRSLGEHLPKIQKPPLPPTTERHERSSPLPGKKPPVPKHGWGPDRRENDEDDVHQRPLPQPALLPMSSNTFPSRSTKPSPMNPLPSSHMPGAFSESNSSFPQSASLPPYFSQGPSNRPPIRAEGRNFPLPLPNKPRPPSPAEEENSLNEEWYVSYITRPEAEAALRKINQDGTFLVRDSSKKTTTNPYVLMVLYKDKVYNIQIRYQKESQVYLLGTGLRGKEDFLSVSDIIDYFRKMPLLLIDGKNRGSRYQCTLTHAAGYP
On to B2, for which, in assay [2], the binding entry was “binds”.

B3: TRAF1 (protein, UniProt Q13077 1-416)
chain: MASSSGSSPRPAPDENEFPFGCPPTVCQDPKEPRALCCAGCLSENPRNGEDQICPKCRGEDLQSISPGSRLRTQEKAHPEVAEAGIGCPFAGVGCSFKGSPQSVQEHEVTSQTSHLNLLLGFMKQWKARLGCGLESGPMALEQNLSDLQLQAAVEVAGDLEVDCYRAPCSESQEELALQHFMKEKLLAELEGKLRVFENIVAVLNKEVEASHLALATSIHQSQLDRERILSLEQRVVELQQTLAQKDQALGKLEQSLRLMEEASFDGTFLWKITNVTRRCHESACGRTVSLFSPAFYTAKYGYKLCLRLYLNGDGTGKRTHLSLFIVIMRGEYDALLPWPFRNKVTFMLLDQNNREHAIDAFRPDLSSASFQRPQSETNVASGCPLFFPLSKLQSPKHAYVKDDTMFLKCIVETST
B3: in assay [2], the binding entry is given as “binds”.
